From article PMC4712816 come the findings set out here.

No constants are given. Whether binding was seen depends on the method and setting. In cells and extracts the contact can be indirect. Some binding calls cover weakened binding; strength is not graded here. Sequences can lack the tags named with a protein.

This test addresses T1, DC-STAMP tagged with HA at the C-terminus (DC-STAMP–HA), full length (murine) (UniProt Q7TNJ0).
T1 sequence: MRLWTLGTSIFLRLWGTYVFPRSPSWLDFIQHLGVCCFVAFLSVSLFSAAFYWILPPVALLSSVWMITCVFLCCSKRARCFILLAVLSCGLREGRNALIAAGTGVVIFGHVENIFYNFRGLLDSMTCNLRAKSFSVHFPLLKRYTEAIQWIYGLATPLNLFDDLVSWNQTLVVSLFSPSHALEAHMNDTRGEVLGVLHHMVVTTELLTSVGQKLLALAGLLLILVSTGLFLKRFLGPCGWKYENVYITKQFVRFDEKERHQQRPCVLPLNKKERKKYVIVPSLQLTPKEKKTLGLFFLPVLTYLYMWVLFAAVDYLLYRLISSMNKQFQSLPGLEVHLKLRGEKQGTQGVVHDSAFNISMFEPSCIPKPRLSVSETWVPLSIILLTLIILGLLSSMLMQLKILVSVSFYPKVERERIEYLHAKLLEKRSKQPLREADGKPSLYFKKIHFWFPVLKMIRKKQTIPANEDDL
The experiment in a line: co-IP; HeLa cells co-transfected with FLAG–Luman and DC-STAMP–HA plasmids, harvested 24 h after transfection, lysed with SDS lysis buffer; IP with anti-HA rabbit monoclonal antibodies and rProteinG agarose, washed five times with TBS; western blot with anti-FLAG or anti-HA.

B1: Luman tagged with FLAG at the N-terminus (FLAG–Luman) (protein, UniProt Q61817 1-404)
chain: MDPGGQDLLALDPGDQDLLGFLLEESGDLWAATEPDVKASLDLELSPSENSVQELSDWEVEDLLSSLLSPSVSRDVLGSSSSSILHDHNYSLPQEHVSIDLGECEMISCRGRRELTGLAGSTFPFADTESFEKEGFHVTPLPGEERAAEQEMSRLILTEEEKKLLEKEGLTLPSTLPLTKVEEQVLKRVRRKIRNKRAAQESRKKKKVYVVGLESRVLKYTAQNRELQNKVQRLEEQNLSLLDQLRKLQAMVIEIANKTSSGSTCVLVLVFSFCLLLVPAMYSSDARGSVPAEYVVLHRKLRALPSEDDHQPKPSALSSELPMDSTHQSLDSSEHMFLVSSNFSCVLYHAPQAEQPLHWPLWDLSSEMLFSDSNLLLQANLSESEGWQPNHSPSLVIFQGRYSG
As to B1, the binding result is reported as “binds”.
